According to the supplement of paper PMC5770031:
Several values for one entry are separate records, joined by “and”; a condition that tells them apart may be missing. Equal entries are not always repeated. Some of the results follow. Single values are uncertain here, since repeats match poorly.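 ATM8/balancer (normal ATM) heterozygous flies were crossed on treated food; parents laid eggs 5–6 days, offspring developed ~12 days, so parents and larvae ingested compound. Readout: fraction of emerged adults homozygous for ATM8 versus 2% DMSO controls. Compounds were neutral at 10–20% homozygotes, harmful below 10%, helpful above 20%.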

Test system: Drosophila melanogaster ATM8 (temperature-sensitive ATM allele)
Assay: fraction of eclosed F1 progeny that are homozygous ATM8 (rescue of developmental lethality); higher = more rescue of ATM8 developmental lethality; extreme values may be limits of the assay
Conditions: compound concentration applied to food 0.2 mM; 21 °C

Row | Compound | fraction of eclosed F1 progeny that are homozygous ATM8
1 | C[C@H]1C(=O)CC[C@@H]2[C@]1(C)CC[C@H]1[C@@]2(C)CC[C@@]2(C)[C@@H]3CC(C)(C)CC[C@]3(C)CC[C@]12C | 0.17
2 | CCCCC(=O)N(Cc1ccc(-c2ccccc2-c2nnn[nH]2)cc1)[C@H](C(=O)O)C(C)C | 0.205
3 | CC[C@@H](CO)NC(=O)[C@@H]1C=C2c3cccc4c3c(cn4C)C[C@H]2N(C)C1 | 0.0263
4 | N#C[C@H](O[C@@H]1O[C@H](CO[C@@H]2O[C@H](CO)[C@@H](O)[C@H](O)[C@H]2O)[C@@H](O)[C@H](O)[C@H]1O)c1ccccc1 | 0.208
5 | O=C(c1ccc(OCCN2CCCCC2)cc1)c1c(-c2ccc(O)cc2)sc2cc(O)ccc12 | 0.0385
6 | COc1cc2c(c(OC)c1OC)-c1ccc(OC)c(=O)cc1[C@@H](NC(C)=O)CC2 | 0.111
7 | C=C1[C@H]2CC[C@@]3(C)[C@H](c4ccoc4)OC(=O)C[C@]13O[C@H]1C[C@H](O)C(C)(C)[C@H](CC(=O)OC)[C@]12C [3-DEOXY-3beta-HYDROXYANGOLENSIC ACID METHYL ESTER] | 0.132
8 | CC(CN1c2ccccc2Sc2ccccc21)N(C)C (centres undefined) | 0.196
9 | NS(=O)(=O)c1cc2c(cc1C(F)(F)F)NC(Cc1ccccc1)NS2(=O)=O (centres undefined) | 0.0797
10 | CC[C@@]1([C@H]2O[C@H]([C@H]3O[C@@](O)(CO)[C@H](C)C[C@@H]3C)C[C@H]2C)CC[C@H]([C@@]2(C)CC[C@]3(C[C@H](O)[C@@H](C)[C@@H]([C@H](C)[C@H](OC)[C@@H](C)C(=O)O)O3)O2)O1 | 0
11 | CC1(C)S[C@@H]2[C@H](N3C(=O)[C@@H](c4ccccc4)NC3(C)C)C(=O)N2[C@H]1C(=O)O | 0.158
12 | CCOC(=O)C1=C(C)NC(C)=C(C(=O)OC)C1c1cccc([N+](=O)[O-])c1 (centres undefined) | 0.0702
13 | CC(=O)O[C@H]1C[C@@H](OC(C)=O)C(C)(C)C2CC(=O)[C@]3(C)C(CC[C@@]4(C)[C@H](C(=O)O)OC(=O)C5OC543)[C@]21C (some centres undefined) | 0.0862
14 | CCCCCCCCCCCCCCCCC(C(=O)O)C(O)(CC(=O)O)C(=O)O (centres undefined) | 0.25
15 | COC(=O)c1c(C)cc(OC(=O)c2c(C)cc(O)c(CO)c2O)c(C)c1O | 0.25
16 | C[C@]12CC[C@H](O)CC1=CC[C@@H]1[C@@H]2CC[C@]2(C)C(=O)CC[C@@H]12 | 0.093
17 | CCn1cc(C(=O)O)c(=O)c2cc(F)c(N3CCNCC3)cc21 | 0.244
18 | O=c1c(O)c(-c2ccc(O)c(O)c2)oc2c(O[C@@H]3O[C@H](CO)[C@@H](O)[C@H](O)[C@H]3O)c(O)cc(O)c12 | 0.233
19 | COc1ccc(-n2nc(C(N)=O)c3c2C(=O)N(c2ccc(N4CCCCC4=O)cc2)CC3)cc1 | 0.256
20 | COc1ccc(C(C)=O)c(O)c1 | 0.0769
21 | CC(=O)Oc1cccc(C(=O)O)c1OC(C)=O | 0.0455
22 | COc1c(O)cc2c(c1O)[C@@H]1O[C@H](CO)[C@@H](O)[C@H](O)[C@H]1OC2=O | 0.122

Row | Compound | fraction of eclosed F1 progeny that are homozygous ATM8
23 | CC(C)[C@H]1CC[C@H](C(=O)N[C@H](Cc2ccccc2)C(=O)O)CC1 | 0.294
24 | COC(=O)/C(=C1/OC(=O)C(c2ccccc2)=C1O)c1ccccc1 | 0.36
25 | CC1C=CC=CCCC=CC=CC=CC=CC(OC2OC(C)C(O)C(N)C2O)CC2OC(O)(CC(O)C(O)CCC(O)CC(O)CC(O)CC(=O)OC(C)C(C)C1O)CC(O)C2C(=O)O (centres undefined) | 0.214
26 | COc1ccccc1OCCNCC(O)COc1cccc2[nH]c3ccccc3c12 (centres undefined) | 0.279 and 0.407
27 | CC(C)c1nc(CN(C)C(=O)N[C@H](C(=O)N[C@@H](Cc2ccccc2)C[C@H](O)[C@H](Cc2ccccc2)NC(=O)OCc2cncs2)C(C)C)cs1 | 0.0256
28 | CC1CCc2cc(F)cc3c(=O)c(C(=O)O)cn1c23 (centres undefined) | 0.194
29 | COc1cc2c(cc1OC)-c1c(oc3cc(O)cc(O)c3c1=O)CO2 | 0.205
30 | CCCCOc1ccc(OCCCN2CCOCC2)cc1 | 0.194
31 | C[C@@H]1C[C@H](O)[C@@]2(O)[C@]13CC(=O)OC[C@@]2(C)[C@@](C)(O)C(=O)C3 | 0.104
32 | CC(C)[C@@H]1CC[C@@H](C)C[C@H]1OC(=O)c1ccccc1 | 0.212
33 | S=P(N1CC1)(N1CC1)N1CC1 | 0.075
34 | CC(=O)O[C@H]1CC[C@@]2(C)[C@H](CC[C@@H]3[C@@H]2CC[C@]2(C)[C@@H](C4=CC(=O)OC4)[C@@H](OC(C)=O)C[C@]32O)C1 | 0.0769
35 | CC(=O)O[C@H]1CC[C@]2(C)[C@H]3CC=C4[C@@H]5CC(C)(C)CC[C@]5(C(=O)O)CC[C@@]4(C)[C@]3(C)CC[C@H]2C1(C)C | 0.194
36 | CC(C)(C)NCC(O)c1ccc(O)c(CO)c1 (centres undefined) | 0.0625
37 | O=C([O-])C(O)[C@H](O)[C@@H](O)[C@H](O)[C@H](O)CO.O=C([O-])C(O)[C@H](O)[C@@H](O)[C@H](O)[C@H](O)CO.[Ca+2] (some centres undefined) | 0.154
38 | O=C(/C=C/c1ccccc1)c1ccc(O)cc1O | 0.286
39 | Cc1c(OCC(F)(F)F)ccnc1C[S+]([O-])c1nc2ccccc2[nH]1 (centres undefined) | 0.0339
40 | CC[N+]1(C)CCCC(OC(=O)C(O)(c2ccccc2)c2ccccc2)C1 (centres undefined) | 0.0789
41 | Nc1nc(=O)c2c([nH]1)NCC(CNc1ccc(C(=O)N[C@@H](CCC(=O)O)C(=O)O)cc1)=N2 | 0.184
42 | COC(=O)Nc1nc2cc(C(=O)c3ccc(F)cc3)ccc2[nH]1 | 0.192
43 | CC1=C2C(=CO[C@H](C)[C@H]2C)C(O)=C(C(=O)O)C1=O | 0.231
44 | COc1ccc(-c2cc(=O)c3c(O)cc(OC)c(OC)c3o2)c(OC)c1 | 0

In the list so far, these contain two or more sulfur atoms:
Row | Compound | fraction of eclosed F1 progeny that are homozygous ATM8
9 | NS(=O)(=O)c1cc2c(cc1C(F)(F)F)NC(Cc1ccccc1)NS2(=O)=O (centres undefined) | 0.0797
27 | CC(C)c1nc(CN(C)C(=O)N[C@H](C(=O)N[C@@H](Cc2ccccc2)C[C@H](O)[C@H](Cc2ccccc2)NC(=O)OCc2cncs2)C(C)C)cs1 | 0.0256
